The nature of the data set: Randomized, placebo-controlled pilot study of IV 25OHD supplementation in critically ill (ICU) patients; serum vitamin D metabolites and DBP (Example 1). The data set is classed as in vivo. How it is done:
The study was performed in accordance with the 1964 Declaration of Helsinki and its later amendments. The protocol and consent forms were approved by the institutional review board of the University Hospitals Leuven (ML2462). The study was registered at www.controlled-trials.com (ISRCTN24385496). Patients with an anticipated stay in the intensive care unit (ICU) of more than 10 days were eligible for inclusion in the study. Patients younger than 18 years, those suffering from chronic bone or kidney disease, and those who were treated with glucocorticoids before ICU admission were excluded. […]
The effect of IV 25OHD supplementation on vitamin D status (25OHD, 1,25(OH)2D, 24,25(OH)2D) was studied. […] All patients were followed up and monitored for possible adverse events beyond the intervention period of 10 days until discharge or death. […]
Every day at 06.00 a.m., from ICU admission until ICU discharge or death, undiluted blood samples were taken through an arterial line that had been placed for clinical purposes. […] Concentrations of 25OHD, 1,25(OH)2D, and 24,25(OH)2D were measured in serum.
25OHD was measured by competitive binding assay; 1,25(OH)2D by radioimmunoassay (RIA), and DBP by radial immunodiffusion, as previously reported by Bouillon et al (J Clin Invest 1981 67 589-596). […]

Each structure is given as a SMILES string.

For the molecule `C=C1CC[C@H](O)C/C1=C/C=C1\CCC[C@]2(C)[C@@H]([C@H](C)CCCC(C)(C)O)CC[C@@H]12` [25OHD, 25-hydroxyvitamin D], the DBP concentrations entry (IV 200 µg loading dose, then 15 µg/day for 10 days) is “unaffected by the treatment”. For the same molecule, the “Molar ratios of 1,25(OH)2D to DBP” value (upon 25OHD supplementation) is reported as “only transiently rose”.

Source of the values: EP3708171A1, “TREATMENT OF VITAMIN D DEFICIENCY WITH 25(OH) VITAMIN D IN CRITICALLY ILL PATIENTS” (Bouillon, Roger, priority 2019, dated 2020).
